From publication PMC11787094
These are yes or no findings as the source states them, for the method shown. Binding seen in cells or lysates may run through a third protein. Some entries that bind do so weakly or less than the wild type.

Sequences of proteins named here, by UniProt entry; tags and fusion partners are left off.
UniProt P51683: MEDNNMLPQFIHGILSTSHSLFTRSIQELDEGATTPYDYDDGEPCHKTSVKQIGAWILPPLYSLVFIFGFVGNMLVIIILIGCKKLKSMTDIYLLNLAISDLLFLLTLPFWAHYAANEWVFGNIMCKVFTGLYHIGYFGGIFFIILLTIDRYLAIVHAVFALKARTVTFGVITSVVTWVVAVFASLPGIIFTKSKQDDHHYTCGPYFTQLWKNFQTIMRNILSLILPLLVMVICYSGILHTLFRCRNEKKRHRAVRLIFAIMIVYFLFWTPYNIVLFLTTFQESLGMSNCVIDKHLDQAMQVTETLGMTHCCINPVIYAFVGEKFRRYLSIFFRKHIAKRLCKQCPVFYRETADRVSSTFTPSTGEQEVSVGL
UniProt P46935: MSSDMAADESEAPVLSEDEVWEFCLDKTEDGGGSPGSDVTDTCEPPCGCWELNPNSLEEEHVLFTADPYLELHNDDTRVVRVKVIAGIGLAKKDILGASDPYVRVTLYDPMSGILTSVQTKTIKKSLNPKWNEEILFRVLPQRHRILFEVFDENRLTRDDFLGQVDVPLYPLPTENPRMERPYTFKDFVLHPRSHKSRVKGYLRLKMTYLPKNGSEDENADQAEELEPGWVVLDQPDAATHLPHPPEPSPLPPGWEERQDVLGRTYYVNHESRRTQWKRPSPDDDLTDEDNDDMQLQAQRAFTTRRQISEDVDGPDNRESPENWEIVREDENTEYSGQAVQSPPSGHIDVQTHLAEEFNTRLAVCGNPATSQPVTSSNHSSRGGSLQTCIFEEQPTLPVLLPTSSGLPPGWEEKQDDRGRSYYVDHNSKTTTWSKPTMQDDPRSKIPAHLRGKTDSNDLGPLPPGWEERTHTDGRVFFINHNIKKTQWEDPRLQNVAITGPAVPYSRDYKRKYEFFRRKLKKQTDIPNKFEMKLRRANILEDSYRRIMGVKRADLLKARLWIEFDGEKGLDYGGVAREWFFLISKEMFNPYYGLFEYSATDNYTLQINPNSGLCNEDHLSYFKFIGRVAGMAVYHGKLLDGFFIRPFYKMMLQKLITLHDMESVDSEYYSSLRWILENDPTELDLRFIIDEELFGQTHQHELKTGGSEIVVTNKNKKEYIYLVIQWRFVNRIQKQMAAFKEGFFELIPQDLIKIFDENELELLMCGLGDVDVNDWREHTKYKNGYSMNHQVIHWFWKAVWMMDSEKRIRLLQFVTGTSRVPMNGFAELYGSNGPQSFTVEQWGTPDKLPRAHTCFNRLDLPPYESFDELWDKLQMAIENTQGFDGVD

Target: CCR2 (mouse (endogenous in bone marrow-derived MDSCs of C57BL/6J mice)) (UniProt P51683)
Assay: co-IP; reciprocal co-IP of endogenous proteins from MDSC lysate; anti-NEDD4 or anti-CCR2 antibody on Protein G magnetic beads, lysate rotated overnight at 4 °C, three washes, immunoblot

binding: binds
Substance: NEDD4 E3 ligase (from UniProt P46935 1-887) (enzyme)
